“And” between values parts separate entries of the source, which are not always exact repeats. Equal values may be shown once. About 2,100 (0.66%) of roughly 320,000 compounds were called active. The shares of active, inactive and inconclusive entries below differ from those in the screen. Calls follow the shape of the dose curve; as a rule, active = well fitted inhibition curve with a large enough effect in the signal ratio, with a control signal flat (not every such curve was filed as active); inconclusive = small, poorly fitted or top-dose-only effect, or effect the other way, or a change in a side signal; inactive = flat fitted curve, though single readings scatter; the % refers to the signal ratio. A potency beside an inconclusive call is a rough fit, not a confirmed value.
Experiment: qHTS Assay for Lipid Storage Modulators in Drosophila S3 Cells
Conditions: BODIPY lipid droplet fluorescence, 18-24 h, cells fed with added oleic acid; lipid storage change, negative = inhibition: at 46.1 µM (top of the series) unless noted
How it was run: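 Laser-scanning cytometry quantifies lipid droplet accumulation (500–530 nm total intensity; droplet/cell object ratio) in oleic acid-fed (400 uM added) Drosophila S3 cells treated with a concentration series. 20 uM Triacsin C defined 100% inhibition.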
% is scaled to controls: 0 for no effect and ±100 for the full control effect; potency is read from the fitted curve at half-maximal effect.

| SMILES | Potency | lipid storage change, negative = inhibition |
| --- | --- | --- |
| CNC(=O)c1c(C)nc(SCC(=O)NCc2ccc(OC)cc2)c(C#N)c1-c1ccco1 | inconclusive: 7.31 µM [activator, partial curve, poor fit] | – |
| Cc1cccn2c(=O)c(C=O)c(Cl)nc12 | – | inconclusive: 11.1% |
| CSCCC(NC(=O)c1ccccc1Br)C(=O)NC(C)CCc1ccccc1 (centres undefined) | – | inconclusive: 4.23% |
| CCN(CC)CCNC(=O)c1ccccc1N | active: 23.1 µM | – |
| O=C(C1CCC(CNc2c(N3CCCCC3)c(=O)c2=O)CC1)N1CCN(c2ccccn2)CC1 (centres undefined) | inconclusive: 20.6 µM [activator, partial curve, poor fit] | – |
| CN(C)C(CNC(=O)c1ccccc1C(F)(F)F)c1ccco1 (centres undefined) | – | inconclusive: -11.5% |
| CC(C)(C)NC(=O)CN(C(=O)CS(=O)CC(=O)Nc1ccc(F)cc1)c1ccc(F)c(Cl)c1 (centres undefined) | inconclusive: 5.8 µM [activator, single point] | – |
| Cc1ccc(S(=O)(=O)NCCC(=O)Nc2ccc(S(=O)(=O)NC(C)C)cc2)cc1 | inconclusive: 0.58 µM [activator, full curve] | – |
| Cc1ccccc1OCc1nnc(SCC(=O)N2c3ccccc3Sc3ccc(Cl)cc32)o1 | inconclusive: 29.1 µM [falling, single point] | – |
| CCc1nnc(NC(=O)C2CC(=O)N(C3CCCCC3)C2)s1 (centres undefined) | – | inconclusive: 3.93% |
| O=C(COC(=O)c1ccc(Cl)nc1)NCCNC(=O)COC(=O)c1ccc(Cl)nc1 | inconclusive: 5.17 µM [falling, partial curve, poor fit] | – |
| CC(C)CCNC(=O)COC(=O)c1cc(Br)c(Br)s1 | – | inconclusive: -10.9% |
| COc1ccc2c(c1)C(=O)N(c1ccccc1OC)C(=O)C2 | – | inconclusive: -34.5% |
| O=C(c1ccc(F)c(S(=O)(=O)N2CCOCC2)c1)N1CCN(c2ccc(F)cc2)CC1 | – | inconclusive: 2.98% |
| O=c1[nH][nH]c(C(F)(F)F)c1C=Nc1cccc(Cl)c1 | – | inconclusive: 483% |
| COc1ccc(/C=C/C(=O)c2ccc(C)c([N+](=O)[O-])c2)cc1O | – | inconclusive: -67.8% |
| COc1cc(NC(=O)CSCc2ccc(Cl)cc2Cl)c(C(=O)O)cc1OC | inconclusive: 29.1 µM [activator, partial curve, poor fit] | – |
| CCC(Sc1ccc2nnc(-c3cccnc3)n2n1)C(=O)OC (centres undefined) | – | inconclusive: -4.84% |
| C=C(C)COc1ccc2c3c(c(=O)oc2c1OCC(=C)C)CCC3 | – | inconclusive: 22.2% |
| COc1ccccc1N(CC(=O)Nc1ccc(Cc2ccncc2)cc1)S(=O)(=O)c1ccccc1 | active: 7.31 µM | – |
| Cc1ccc(NC(=O)CN(C)CC(=O)N(CC(C)C)c2c(N)n(CC(C)C)c(=O)[nH]c2=O)c(C)c1 | inconclusive: 7.31 µM [activator, partial curve] | – |
| CCOC(=O)NC(c1ccccc1)C1CCCCC1=O (centres undefined) | – | inconclusive: -41.1% |
| Cc1ccc(NC(=S)N/N=C2\CC3CC=CC23)c(C)c1 (centres undefined) | – | inconclusive: -11.4% |
| Cc1ccc(-c2cc(C(=O)O)c3cc(Br)ccc3n2)s1 | – | inconclusive: -47% and inconclusive: -57.3% |
| O=C(COc1ccc(Cl)c2cccnc12)N1CCOCC1 | inconclusive: 6.51 µM [activator, partial curve, poor fit] | – |

| SMILES | Potency | lipid storage change, negative = inhibition |
| --- | --- | --- |
| Cc1cc(Cn2nnc3ccccc32)c(O)c(C(C)(C)C)c1 | – | inconclusive: -100% [cytotoxic] |
| CC(=O)N1N=C(c2ccco2)CC1c1ccco1 (centres undefined) | – | inconclusive: -43.6% |
| O=C(Nc1ccnn1C1CCN(C(=O)c2cc(Cl)ccc2F)CC1)C1CCOC1 (centres undefined) | inconclusive: 3.26 µM [falling, single point] | – |
| COC(=O)c1sccc1NC(=O)Nc1ccccc1OC | – | inconclusive: -6.08% |
| CCC1=Nc2cc(C(=O)NCc3ccco3)ccc2Sc2ccccc21 | – | inconclusive: -4.72% |
| COc1ccc(C)cc1NC(=O)CCCNC(=O)Cn1cnc2sc(C)c(C)c2c1=O | – | inconclusive: 164% |
| CCN(C(=O)COC(=O)c1c(C)nsc1NC)c1ccccc1 | – | inconclusive: -21.7% |
| COc1ccc(C2C(C(=O)c3ccco3)=C(O)C(=O)N2CCN2CCOCC2)cc1 (centres undefined) | – | inconclusive: 14.2% |
| O=C(Cc1cn2ccsc2n1)Nc1ccccn1 | – | inconclusive: 1.83% |
| O=C(Nc1ccc(N2CCN(C(=O)c3ccco3)CC2)cc1)c1ccc(F)cc1 | inconclusive: 0.13 µM [activator, full curve, poor fit] | – |
| CCCCn1c(SCC(=O)N(C)C)nnc1-c1ccncc1 | – | inactive: 11.4% |
| O=C(NCCCNC(=O)c1cnccn1)c1ccc(Cl)c(Cl)c1 | – | inconclusive: -119% |
| Cc1nn(Cc2ccc(F)cc2Cl)c(C)c1[N+](=O)[O-] | – | inconclusive: 7.66% |
| Cc1sc2nc(COC(=O)C(NC(=O)c3ccc(Cl)cc3Cl)C(C)C)[nH]c(=O)c2c1C (centres undefined) | – | inconclusive: 16.1% |
| Cc1ccnc(NC(=O)CCC(=O)N(CC(=O)NCc2ccc(F)cc2)c2cccc(F)c2)c1 | – | inconclusive: 74.9% |
| Cc1ccc(Cl)c2sc(NC(=O)C3=COCCO3)nc12 | – | inconclusive: -56.8% |
| Cc1cc(C(=O)N/N=C/c2ccc(-c3cccc(Cl)c3)o2)n[nH]1 | – | inconclusive: -49.9% |
| Cc1ccc(S(=O)(=O)Nc2ccccc2F)cc1C(=O)N1CCN(c2ccccc2O)CC1 | inconclusive: 0.0052 µM [falling, full curve, poor fit] | – |
| COC(=O)c1cc(S(=O)(=O)NCCCN2CCCC2=O)cn1C | – | inconclusive: 26.4% |
| Cn1c(SCC2CCCO2)nnc1-c1ccncc1 (centres undefined) | – | inconclusive: 44.1% |
| O=c1ccc(-c2ccc(S(=O)(=O)NCC3CCN(Cc4ccccc4F)CC3)s2)n[nH]1 | – | inconclusive: 105% |
| Cc1nc(OCC(=O)c2ccc(Cl)cc2)c(C#N)c2c1COC(C)(C)C2 | inconclusive: 6.51 µM [rising, partial curve, poor fit] | – |
| Cc1cc2c3c(c1)C(C)(c1ccccc1)CC(C)(C)N3C(=O)C21C(C#N)=C(N)OC2=C1C(=O)CC(C)(C)C2 (centres undefined) | inconclusive: 29.1 µM [cytotoxic, single point] | – |
| Cc1cc(NC(=O)CSCC(=O)N(C)Cc2ccc(Cl)cc2Cl)no1 | – | inconclusive: 28.2% |
| Cc1ccc(C)c(NC(=S)NNC(=S)Nc2ccc(C(C)C)cc2)c1 | – | inconclusive: -44.1% |

Quoted from the listing.
In lipid storage change, negative = inhibition, `CC(=O)N1N=C(c2ccco2)CC1c1ccco1` (centres undefined) is listed with inconclusive: -43.6%
In Potency, `Cc1ccc(S(=O)(=O)Nc2ccccc2F)cc1C(=O)N1CCN(c2ccccc2O)CC1` is listed with inconclusive: 0.0052 µM [falling, full curve, poor fit]

Two compounds drawn at random from those above:

| SMILES | Potency | lipid storage change, negative = inhibition |
| --- | --- | --- |
| CC(C)(C)NC(=O)CN(C(=O)CS(=O)CC(=O)Nc1ccc(F)cc1)c1ccc(F)c(Cl)c1 (centres undefined) | inconclusive: 5.8 µM [activator, single point] | – |
| Cc1ccnc(NC(=O)CCC(=O)N(CC(=O)NCc2ccc(F)cc2)c2cccc(F)c2)c1 | – | inconclusive: 74.9% |

Next entries:

| SMILES | Potency | lipid storage change, negative = inhibition |
| --- | --- | --- |
| Cc1ccc(N2C(=O)N(CC(=O)Nc3ccccc3C)C(=O)C2C)cc1 (centres undefined) | – | inconclusive: 66.4% |
| CCOC(=O)C1=C(CNCc2ccc(C)cc2)NC(=O)NC1c1ccc(OC)cc1 (centres undefined) | – | inconclusive: 41.2% |
| Cc1nn(-c2ccccc2)c2sc(C(=O)OCc3nnc(-c4ccccc4)o3)cc12 | inconclusive: 1.46 µM [rising, partial curve] | – |
| Cc1ccc(Cl)c2c1NC(=O)C2(O)CC(=O)c1ccc(F)cc1 (centres undefined) | – | inconclusive: 18.1% |
| O=C(Nc1ncc(C(F)(F)F)cc1Cl)c1ccc(S(=O)(=O)N2CCOCC2)cc1 | – | inconclusive: 9.86% |
| CCN(C(=O)COC(=O)c1ccc2[nH]c3c(c2c1)CCCC3)C1CCS(=O)(=O)C1 (centres undefined) | – | inconclusive: -11.7% |
| CC(=O)/C(=N/Nc1ccccc1Cl)Sc1nnc(C(O)c2ccccc2)n1-c1ccccc1 (centres undefined) | inconclusive: 18.4 µM [activator, single point] | – |
| CCCC(c1nnnn1C(C)(C)C)N1CCN(Cc2ccccc2)CC1 (centres undefined) | – | inconclusive: 18.4% |
| O=C(c1ccc([N+](=O)[O-])cc1[N+](=O)[O-])N1CCc2ccccc21 | – | inconclusive: -100% |
| C[C@H](NC(=O)NCCc1ccccc1)C(=O)O | – | inconclusive: 4.44% |
| COc1ccc(C(CNC(=O)c2cccc(S(=O)(=O)N3CCCC3)c2)N2CCCC2)cc1 (centres undefined) | inconclusive: 4.11 µM [activator, full curve, poor fit] | – |
| COc1ccc(/C=C\c2onc(C)c2S(=O)(=O)N2CCC(C(=O)NCCC(C)C)CC2)cc1 | – | inconclusive: 55.5% |
| C1=CCC(/C=N/n2cnnc2)CC1 (centres undefined) | – | inconclusive: -13% |
| COc1ccc(C2=NOC(C(=O)NCc3ccccc3)C2)cc1 (centres undefined) | inconclusive: 5.8 µM [falling, full curve, poor fit] | – |
| Cc1ccc(-n2nnnc2/C=C\Nc2cc(C)on2)cc1 | inconclusive: 0.164 µM [activator, full curve, poor fit] | – |
| CNS(=O)(=O)c1cccc(C(=O)OCC(=O)Nc2ccc(-c3nc4ccc(C)cc4s3)cc2)c1 | – | inconclusive: 10.9% |
| CCN(CC)S(=O)(=O)c1ccc2[nH]cc(C(=O)NCCN3CCCCCC3)c(=O)c2c1 | – | inconclusive: -12.8% |
| Cc1occc1-c1nnc(SCC(=O)Nc2ccc(F)cc2)n1C | inconclusive: 29.1 µM [falling, single point] | – |
| O=S(=O)(NCCN1CCOCC1)c1ccc(F)c(Cl)c1 | – | inconclusive: 33.4% |
| Cc1cccc2sc(NC(=O)c3cc(S(=O)(=O)N(C)C)ccc3N3CCCC3)nc12 | – | inconclusive: 15.8% |
| O=C(CCn1c(=O)c2cccn2c2cccnc21)NCc1cccc(Cl)c1 | – | inconclusive: -78.6% |
| Cc1ccc(S(=O)(=O)N2CCOCC2)cc1-c1n[nH]c(=S)n1-c1ccccc1 | inconclusive: 0.092 µM [falling, full curve, poor fit] | – |
| Cc1c(N=Nc2c(-c3ccc([N+](=O)[O-])cc3)[nH]n(C(N)=S)c2=O)cccc1[N+](=O)[O-] | – | inconclusive: 6.99% |
| Cc1ccc(NC(=O)c2nnn(CC(=O)Nc3ccc4c(c3)OCO4)c2N)cc1C | – | inconclusive: -22.6% |

— PubChem BioAssay AID2685 (National Center for Advancing Translational Sciences (NCATS), 2010)
